The supplement of paper PMC6411743
± gives the standard deviation of the averaged measurements. The entries are a selection whose mix differs from that of the whole data set. Small differences around the control level are noise.

By UniProt entry, the sequences of proteins in these tests, tags left out. Where a name states a change or a piece, a line headed by the entry shows the natural chain unless it says otherwise.
UniProt O75643, whole entry: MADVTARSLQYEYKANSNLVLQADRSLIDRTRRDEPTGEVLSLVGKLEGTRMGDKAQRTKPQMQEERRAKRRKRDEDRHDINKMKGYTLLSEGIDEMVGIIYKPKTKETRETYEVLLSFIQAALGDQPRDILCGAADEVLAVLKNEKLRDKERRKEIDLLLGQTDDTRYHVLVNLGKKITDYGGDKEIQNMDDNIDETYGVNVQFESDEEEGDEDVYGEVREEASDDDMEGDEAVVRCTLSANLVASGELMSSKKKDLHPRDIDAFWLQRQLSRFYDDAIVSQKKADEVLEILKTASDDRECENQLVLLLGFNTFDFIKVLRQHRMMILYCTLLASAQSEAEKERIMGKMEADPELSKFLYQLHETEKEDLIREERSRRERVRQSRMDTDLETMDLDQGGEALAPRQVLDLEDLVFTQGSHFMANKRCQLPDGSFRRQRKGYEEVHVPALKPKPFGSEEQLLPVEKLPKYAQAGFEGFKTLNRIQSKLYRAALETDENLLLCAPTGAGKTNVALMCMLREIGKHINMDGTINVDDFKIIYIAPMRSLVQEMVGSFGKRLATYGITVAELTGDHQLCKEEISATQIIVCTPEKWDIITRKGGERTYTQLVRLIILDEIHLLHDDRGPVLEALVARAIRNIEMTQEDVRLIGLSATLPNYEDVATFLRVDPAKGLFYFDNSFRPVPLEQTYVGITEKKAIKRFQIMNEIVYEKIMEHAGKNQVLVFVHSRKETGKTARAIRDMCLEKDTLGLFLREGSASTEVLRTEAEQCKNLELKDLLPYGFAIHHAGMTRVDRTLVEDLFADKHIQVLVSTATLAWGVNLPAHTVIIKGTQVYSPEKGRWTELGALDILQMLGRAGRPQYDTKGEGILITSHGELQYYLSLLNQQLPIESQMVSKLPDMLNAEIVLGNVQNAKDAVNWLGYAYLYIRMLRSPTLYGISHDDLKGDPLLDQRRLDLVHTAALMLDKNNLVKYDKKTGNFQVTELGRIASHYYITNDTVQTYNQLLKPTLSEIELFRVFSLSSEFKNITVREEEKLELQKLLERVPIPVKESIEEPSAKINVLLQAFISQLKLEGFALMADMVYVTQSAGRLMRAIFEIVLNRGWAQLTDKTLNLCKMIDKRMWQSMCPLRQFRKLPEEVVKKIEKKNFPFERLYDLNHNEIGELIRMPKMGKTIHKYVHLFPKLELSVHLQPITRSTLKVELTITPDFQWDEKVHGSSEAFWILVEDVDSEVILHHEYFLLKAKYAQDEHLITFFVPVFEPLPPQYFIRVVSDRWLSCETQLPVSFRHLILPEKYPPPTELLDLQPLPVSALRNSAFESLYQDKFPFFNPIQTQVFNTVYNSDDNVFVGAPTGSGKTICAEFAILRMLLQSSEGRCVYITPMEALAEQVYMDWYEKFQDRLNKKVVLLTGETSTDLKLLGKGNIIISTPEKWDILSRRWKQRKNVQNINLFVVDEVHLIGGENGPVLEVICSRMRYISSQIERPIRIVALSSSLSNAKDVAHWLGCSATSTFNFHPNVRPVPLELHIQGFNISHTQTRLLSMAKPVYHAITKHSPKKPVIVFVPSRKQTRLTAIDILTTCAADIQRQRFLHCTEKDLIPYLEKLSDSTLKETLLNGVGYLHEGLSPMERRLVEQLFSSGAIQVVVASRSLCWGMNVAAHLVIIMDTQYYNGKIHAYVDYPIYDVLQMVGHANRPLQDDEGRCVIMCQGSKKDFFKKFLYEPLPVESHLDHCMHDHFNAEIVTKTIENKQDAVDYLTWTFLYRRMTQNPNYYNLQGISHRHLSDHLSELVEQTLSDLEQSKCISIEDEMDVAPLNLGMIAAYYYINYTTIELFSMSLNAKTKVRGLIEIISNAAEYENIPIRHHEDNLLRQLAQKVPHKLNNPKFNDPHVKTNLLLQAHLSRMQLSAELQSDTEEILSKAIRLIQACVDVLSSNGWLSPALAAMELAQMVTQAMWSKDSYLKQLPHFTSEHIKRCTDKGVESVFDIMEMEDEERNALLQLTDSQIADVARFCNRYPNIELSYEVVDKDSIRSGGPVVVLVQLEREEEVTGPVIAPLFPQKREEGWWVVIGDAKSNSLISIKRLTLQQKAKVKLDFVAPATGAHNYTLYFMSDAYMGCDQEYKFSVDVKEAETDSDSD
UniProt O95365: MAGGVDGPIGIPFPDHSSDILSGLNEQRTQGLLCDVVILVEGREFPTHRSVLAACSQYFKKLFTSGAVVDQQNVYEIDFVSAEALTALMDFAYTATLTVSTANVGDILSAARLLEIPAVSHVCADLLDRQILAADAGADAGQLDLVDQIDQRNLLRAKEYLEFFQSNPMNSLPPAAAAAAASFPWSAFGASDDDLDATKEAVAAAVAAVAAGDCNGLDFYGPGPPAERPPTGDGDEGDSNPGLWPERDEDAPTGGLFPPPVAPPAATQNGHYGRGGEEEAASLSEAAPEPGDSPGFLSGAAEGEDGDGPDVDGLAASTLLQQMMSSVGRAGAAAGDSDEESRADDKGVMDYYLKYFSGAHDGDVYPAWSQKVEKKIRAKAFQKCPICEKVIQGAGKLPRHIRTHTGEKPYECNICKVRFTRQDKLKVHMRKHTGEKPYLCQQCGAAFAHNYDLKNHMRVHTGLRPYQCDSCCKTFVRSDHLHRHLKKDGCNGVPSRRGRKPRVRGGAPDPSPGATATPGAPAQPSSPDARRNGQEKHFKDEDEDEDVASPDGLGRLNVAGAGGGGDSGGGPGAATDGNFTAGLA
UniProt O60825: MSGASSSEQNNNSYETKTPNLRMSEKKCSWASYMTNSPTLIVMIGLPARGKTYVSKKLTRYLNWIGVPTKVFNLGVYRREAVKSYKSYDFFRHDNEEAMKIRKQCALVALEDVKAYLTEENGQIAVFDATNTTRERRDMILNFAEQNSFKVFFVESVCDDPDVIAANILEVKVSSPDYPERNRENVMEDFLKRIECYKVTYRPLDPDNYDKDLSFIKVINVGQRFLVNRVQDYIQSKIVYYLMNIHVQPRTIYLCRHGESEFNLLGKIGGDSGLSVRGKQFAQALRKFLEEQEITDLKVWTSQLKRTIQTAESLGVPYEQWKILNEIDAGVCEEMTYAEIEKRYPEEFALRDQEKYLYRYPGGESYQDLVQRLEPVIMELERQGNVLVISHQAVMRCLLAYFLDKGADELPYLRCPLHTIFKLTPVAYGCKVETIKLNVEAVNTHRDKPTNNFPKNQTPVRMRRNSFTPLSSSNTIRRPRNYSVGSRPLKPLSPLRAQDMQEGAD
UniProt O60524: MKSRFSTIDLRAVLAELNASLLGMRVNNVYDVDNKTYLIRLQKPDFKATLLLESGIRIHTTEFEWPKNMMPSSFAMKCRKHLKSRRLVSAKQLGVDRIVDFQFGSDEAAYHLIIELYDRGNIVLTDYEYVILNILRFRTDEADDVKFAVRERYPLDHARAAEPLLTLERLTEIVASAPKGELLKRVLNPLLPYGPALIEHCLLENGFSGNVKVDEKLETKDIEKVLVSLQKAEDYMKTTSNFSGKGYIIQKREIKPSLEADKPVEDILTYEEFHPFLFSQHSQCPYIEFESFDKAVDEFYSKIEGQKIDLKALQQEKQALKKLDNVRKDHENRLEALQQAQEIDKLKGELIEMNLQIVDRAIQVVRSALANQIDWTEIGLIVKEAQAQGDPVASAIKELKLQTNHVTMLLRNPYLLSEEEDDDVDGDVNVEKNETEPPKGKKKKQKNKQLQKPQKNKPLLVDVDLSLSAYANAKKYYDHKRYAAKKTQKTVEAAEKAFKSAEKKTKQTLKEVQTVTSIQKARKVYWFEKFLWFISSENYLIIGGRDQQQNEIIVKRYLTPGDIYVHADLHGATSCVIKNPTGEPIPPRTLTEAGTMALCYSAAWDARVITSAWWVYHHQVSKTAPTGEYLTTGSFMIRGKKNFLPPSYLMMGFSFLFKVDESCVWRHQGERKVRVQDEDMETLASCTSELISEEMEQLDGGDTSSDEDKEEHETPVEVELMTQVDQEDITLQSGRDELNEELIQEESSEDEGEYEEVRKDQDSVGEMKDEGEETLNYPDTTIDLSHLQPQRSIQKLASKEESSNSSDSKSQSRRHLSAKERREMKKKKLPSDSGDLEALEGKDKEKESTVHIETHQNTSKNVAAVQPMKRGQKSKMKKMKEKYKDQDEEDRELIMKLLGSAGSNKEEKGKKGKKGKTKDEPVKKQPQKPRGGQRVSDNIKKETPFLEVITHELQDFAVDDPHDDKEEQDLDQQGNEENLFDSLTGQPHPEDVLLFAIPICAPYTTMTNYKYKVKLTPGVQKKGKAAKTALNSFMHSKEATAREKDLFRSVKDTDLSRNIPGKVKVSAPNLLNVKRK
UniProt O60287: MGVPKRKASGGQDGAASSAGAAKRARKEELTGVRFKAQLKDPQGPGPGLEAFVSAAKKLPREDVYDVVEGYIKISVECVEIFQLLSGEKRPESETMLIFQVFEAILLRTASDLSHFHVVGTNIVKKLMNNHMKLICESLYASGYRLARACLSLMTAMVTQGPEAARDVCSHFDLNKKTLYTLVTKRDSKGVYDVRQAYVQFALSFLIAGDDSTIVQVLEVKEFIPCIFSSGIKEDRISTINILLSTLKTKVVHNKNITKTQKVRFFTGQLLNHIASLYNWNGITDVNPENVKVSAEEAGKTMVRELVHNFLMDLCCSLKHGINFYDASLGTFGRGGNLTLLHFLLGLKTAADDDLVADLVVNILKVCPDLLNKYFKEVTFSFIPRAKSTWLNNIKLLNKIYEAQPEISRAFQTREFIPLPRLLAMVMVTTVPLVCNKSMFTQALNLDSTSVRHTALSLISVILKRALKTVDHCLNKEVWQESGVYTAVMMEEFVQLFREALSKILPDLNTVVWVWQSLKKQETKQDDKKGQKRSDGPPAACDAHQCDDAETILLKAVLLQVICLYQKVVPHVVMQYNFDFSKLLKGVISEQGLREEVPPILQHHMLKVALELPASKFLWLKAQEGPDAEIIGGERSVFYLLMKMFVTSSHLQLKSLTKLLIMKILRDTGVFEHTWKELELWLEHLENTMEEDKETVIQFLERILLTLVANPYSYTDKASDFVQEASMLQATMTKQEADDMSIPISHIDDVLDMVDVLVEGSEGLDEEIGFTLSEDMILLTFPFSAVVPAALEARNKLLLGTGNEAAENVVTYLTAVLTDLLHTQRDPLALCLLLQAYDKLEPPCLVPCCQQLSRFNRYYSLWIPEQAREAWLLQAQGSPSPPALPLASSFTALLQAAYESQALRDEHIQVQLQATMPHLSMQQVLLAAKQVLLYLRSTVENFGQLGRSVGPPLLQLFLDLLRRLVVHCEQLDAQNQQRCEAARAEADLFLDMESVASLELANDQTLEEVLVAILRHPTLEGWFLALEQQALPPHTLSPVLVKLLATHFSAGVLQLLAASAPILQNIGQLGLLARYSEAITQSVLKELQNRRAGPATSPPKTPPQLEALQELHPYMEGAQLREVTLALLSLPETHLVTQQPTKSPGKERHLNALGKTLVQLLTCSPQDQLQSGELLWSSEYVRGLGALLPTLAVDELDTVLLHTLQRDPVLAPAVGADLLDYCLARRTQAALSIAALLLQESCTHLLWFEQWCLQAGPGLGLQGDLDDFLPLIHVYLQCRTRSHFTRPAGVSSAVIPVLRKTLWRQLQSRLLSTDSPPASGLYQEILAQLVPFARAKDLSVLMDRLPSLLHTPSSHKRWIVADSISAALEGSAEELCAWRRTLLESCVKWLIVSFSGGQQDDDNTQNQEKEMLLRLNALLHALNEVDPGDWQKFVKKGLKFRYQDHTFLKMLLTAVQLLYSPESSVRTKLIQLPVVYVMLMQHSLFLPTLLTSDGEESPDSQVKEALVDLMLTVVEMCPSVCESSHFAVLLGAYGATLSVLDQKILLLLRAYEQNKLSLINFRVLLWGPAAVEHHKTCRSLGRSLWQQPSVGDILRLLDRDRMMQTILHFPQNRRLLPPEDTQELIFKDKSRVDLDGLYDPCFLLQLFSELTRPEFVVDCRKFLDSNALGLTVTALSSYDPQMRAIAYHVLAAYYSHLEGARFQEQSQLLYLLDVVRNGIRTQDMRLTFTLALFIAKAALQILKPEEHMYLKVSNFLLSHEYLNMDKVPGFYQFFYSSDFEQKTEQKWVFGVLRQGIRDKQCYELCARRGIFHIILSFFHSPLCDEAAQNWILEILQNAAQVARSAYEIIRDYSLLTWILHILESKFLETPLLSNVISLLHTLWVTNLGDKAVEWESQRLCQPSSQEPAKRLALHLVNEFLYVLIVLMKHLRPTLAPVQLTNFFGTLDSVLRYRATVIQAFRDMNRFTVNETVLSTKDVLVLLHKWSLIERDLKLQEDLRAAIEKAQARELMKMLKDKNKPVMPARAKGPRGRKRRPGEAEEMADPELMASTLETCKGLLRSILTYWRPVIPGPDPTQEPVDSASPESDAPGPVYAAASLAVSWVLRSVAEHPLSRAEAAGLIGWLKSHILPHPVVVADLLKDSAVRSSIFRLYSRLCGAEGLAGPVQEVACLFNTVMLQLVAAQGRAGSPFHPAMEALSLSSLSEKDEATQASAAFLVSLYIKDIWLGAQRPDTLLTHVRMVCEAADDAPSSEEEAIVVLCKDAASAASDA

Compound: Nc1ncnc2c1ncn2[C@@H]1O[C@H](COP(=O)(O)OP(=O)(O)NP(=O)(O)O)[C@@H](O)[C@H]1O [adenylyl imidodiphosphate]
Test: NP40-soluble protein abundance relative to vehicle (solubility fold change) (ratio); higher = more soluble protein in presence of AMP-PNP
In short: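 Jurkat crude lysate (Dounce-homogenised) was treated with eight concentrations from 0.1 to 10 mM for 10 min at room temperature, then 3 min at 37 °C. It was solubilised with 0.8% NP40 and benzonase (60 min, 4 °C) and ultracentrifuged, and the supernatant was TMT-labelled for LC-MS/MS. Intensities were vsn-normalised, and the value is the fold change against the NP40-processed vehicle per replicate, from three independent experiments.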

Target	NP40-soluble protein abundance (concentration: 0.1mM)	NP40-soluble protein abundance (concentration: 0.5mM)
DGAT1 (UniProt O75907)	1.01 ± 0.083	0.952 ± 0.086
UniProt O75170-3|O75170-4|O75170-5|O75170 and related entries	0.9933 ± 0.0078	0.995 ± 0.0073
UniProt O75934	1.01 ± 0.04	1.03 ± 0.07
CPSF4 (UniProt O95639)	1.02 ± 0.039	0.991 ± 0.039
SNRNP200 (UniProt O75643)	1.05 ± 0.055	1.02 ± 0.13
UniProt O75306 and related entries	0.993 ± 0.026	1 ± 0.019
UniProt O75600 and related entries	0.989 ± 0.043	0.968 ± 0.033
UniProt O94887 and related entries	0.985 ± 0.028	0.971 ± 0.018
UniProt O94927	0.9995 ± 0.0035	1 ± 0.036
RANBP6 (UniProt O60518)	0.97 ± 0.012	0.982 ± 0.018
ZBTB7A (UniProt O95365)	0.984 ± 0.029	0.978 ± 0.051
UniProt O75822 and related entries	0.892 ± 0.04	0.896 ± 0.04
UniProt O95479 and related entries	0.993 ± 0.029	0.965 ± 0.031
VAMP5 (UniProt O95183)	1.02 ± 0.033	1 ± 0.025
CDS2 (UniProt O95674)	0.968 ± 0.02	1.01 ± 0.039
CPD (UniProt O75976)	0.955 ± 0.028	0.977 ± 0.019
UniProt O75909 and related entries	1.02 ± 0.012	1.02 ± 0.023
UniProt O75865 and related entries	1.04 ± 0.014	1.04 ± 0.045
SLU7 (UniProt O95391)	1.011 ± 0.0054	0.989 ± 0.026
STAM2 (UniProt O75886)	0.972 ± 0.01	1.01 ± 0.051

Exported comma-delimited: entries from further up
Target,NP40-soluble protein abundance (concentration: 0.1mM),NP40-soluble protein abundance (concentration: 0.5mM)
DGAT1 (UniProt O75907),1.01 ± 0.083,0.952 ± 0.086
UniProt O75170-3|O75170-4|O75170-5|O75170 and related entries,0.9933 ± 0.0078,0.995 ± 0.0073
UniProt O75934,1.01 ± 0.04,1.03 ± 0.07
CPSF4 (UniProt O95639),1.02 ± 0.039,0.991 ± 0.039
SNRNP200 (UniProt O75643),1.05 ± 0.055,1.02 ± 0.13
UniProt O75306 and related entries,0.993 ± 0.026,1 ± 0.019
UniProt O75600 and related entries,0.989 ± 0.043,0.968 ± 0.033
UniProt O94887 and related entries,0.985 ± 0.028,0.971 ± 0.018
UniProt O94927,0.9995 ± 0.0035,1 ± 0.036
RANBP6 (UniProt O60518),0.97 ± 0.012,0.982 ± 0.018
ZBTB7A (UniProt O95365),0.984 ± 0.029,0.978 ± 0.051
UniProt O75822 and related entries,0.892 ± 0.04,0.896 ± 0.04

Additional results:

Target	NP40-soluble protein abundance (concentration: 0.1mM)	NP40-soluble protein abundance (concentration: 0.5mM)
NUP155 (UniProt O75694)	1.03 ± 0.041	0.987 ± 0.096
ROCK2 (UniProt O75116)	0.996 ± 0.032	1.04 ± 0.072
HERC2 (UniProt O95714)	0.987 ± 0.066	1.01 ± 0.025
ZFAND5 (UniProt O76080)	0.951 ± 0.032	0.943 ± 0.032
MTRF1 (UniProt O75570)	1.02 ± 0.017	0.983 ± 0.037
UniProt O60825 and related entries	1.04 ± 0.04	1.02 ± 0.023
KATNA1 (UniProt O75449)	1 ± 0.041	0.974 ± 0.03
MAFK (UniProt O60675)	0.987 ± 0.015	1 ± 0.012
UniProt O60664 and related entries	0.937 ± 0.033	1.03 ± 0.072
RBBP9 (UniProt O75884)	1.02 ± 0.023	0.985 ± 0.042
SH3BP5 (UniProt O60239)	1.08 ± 0.16	0.9934 ± 0.0081
DNAJA2 (UniProt O60884)	0.986 ± 0.026	0.976 ± 0.029
GLRX3 (UniProt O76003)	1.02 ± 0.024	1.03 ± 0.018
UniProt O95219 and related entries	0.996 ± 0.017	1.02 ± 0.027
UniProt O95294 and related entries	0.9967 ± 0.0035	1.01 ± 0.011
UniProt O95571 and related entries	1.01 ± 0.025	0.968 ± 0.014
CAND2 (UniProt O75155)	1.02 ± 0.016	1.02 ± 0.028
HUS1 (UniProt O60921)	1.02 ± 0.012	0.98 ± 0.035
UniProt O43924 and related entries	1.02 ± 0.011	1.03 ± 0.074
HIP1R (UniProt O75146)	1 ± 0.028	1.01 ± 0.027

Target	NP40-soluble protein abundance (concentration: 0.1mM)	NP40-soluble protein abundance (concentration: 0.5mM)
UniProt O95251 and related entries	1.04 ± 0.022	1.08 ± 0.011
BANF1 (UniProt O75531)	2.96 ± 0.91	2.68 ± 0.81
UTP20 (UniProt O75691)	1.02 ± 0.04	1.01 ± 0.022
GRAP2 (UniProt O75791)	1.057 ± 0.0065	0.988 ± 0.063
TUSC2 (UniProt O75896)	1.01 ± 0.032	1 ± 0.022
UniProt O43933 and related entries	1.13 ± 0.044	1.11 ± 0.045
UniProt O60524 and related entries	1 ± 0.017	1.03 ± 0.023
UniProt O75935 and related entries	1.06 ± 0.14	0.997 ± 0.11
UniProt O75398-5|O75398 and related entries	1.02 ± 0.0092	1.02 ± 0.018
SRP72 (UniProt O76094)	0.982 ± 0.024	1.02 ± 0.04
UniProt O95487 and related entries	1.01 ± 0.026	1.03 ± 0.011
UniProt O95218-2	0.983 ± 0.022	1.04 ± 0.072
ZBED4 (UniProt O75132)	1.01 ± 0.025	0.993 ± 0.037
UniProt O60268 and related entries	1 ± 0.047	1.01 ± 0.095
GMFG (UniProt O60234)	1.01 ± 0.044	1.03 ± 0.036
UniProt O60287 and related entries	1.01 ± 0.031	1 ± 0.024
DNAJC8 (UniProt O75937)	1 ± 0.091	1.02 ± 0.084
SS18L1 (UniProt O75177)	0.997 ± 0.047	0.986 ± 0.035
UniProt O60566 and related entries	1.014 ± 0.0087	0.98 ± 0.01
